Test results from PMC9570175.
Results are given in words; binding and its absence hold for the method and conditions named. Some binding calls cover weakened binding; strength is not graded here.

Target: T1, OsDCL1-RBD (two C-terminal dsRBDs of DICER-LIKE1, AA1706-1870) (rice (Oryza sativa)) (UniProt Q8LMR2)
T1 sequence: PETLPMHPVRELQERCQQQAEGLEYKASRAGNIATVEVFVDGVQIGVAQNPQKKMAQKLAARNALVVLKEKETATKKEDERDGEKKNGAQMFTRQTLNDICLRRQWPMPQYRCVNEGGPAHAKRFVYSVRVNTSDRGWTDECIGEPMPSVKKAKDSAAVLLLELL
Assay: two-hybrid; Matchmaker GAL4 two-hybrid system 3 (Clontech), Y2HGold yeast; OsDRB2 on GAL4 AD (pGADT7), DCL1-RBD or OsDRB1-2 on GAL4 BD (pGBKT7); growth on selective -Ade/-His/-Leu/-Trp plates, 28 °C

B1: OsDRB2 (DOUBLE-STRANDED RNA-BINDING2) (protein, UniProt Q9AV50 1-514)
chain: MYKNQLQELAQRSCFNLPAYTCLREGPDHAPRFKAAVNFNGEQFESPGFFTTLRQAEHAAAEVALAALARRGPSYSLAARILDETGVYKNLLQEVAQRVGAPLPSYTTERSGLGHLPVFTCTVELAGITFTGDPAKNKKQAEKNAASAAWSSLRQLVRQEASSSNEPESNDEQEQIRIARALLNYRLKEKMAMANNPHASPFPKKFPMQPERRTAFPQSSHSSYSKILPLFRPKSNSRSRPESPAASDAASQTPFRPTESPNPRSRFPAAEAAPYVPVGHFRMPCHSMAPPVTVRTSIPVFSAPPLPPPGARTQQLPPLMSHPPPIRMASPVRIRPAPPLFTPSAVQGPKPMMPVQIKDVQHQQIKETRSPVMPVQVKDAQNQLLKGSLSPVIPVQIKDVQSQPPKEALSPAIPVQIKDVQLQPRNEPVSIGKGVVPLPAIRPPVKVEAPAEVKEASQPVAGSSVVQCKADTSPDSLPKTQLKTANADNADAKDDHLPVDAEEVEDIIRHLELK
In the case of B1, the binding is reported as “binds”.
